Positions count from the first letter of the chain named. For some of these results: Weaker means in comparison with the reference protein, sequence or condition of that experiment. Where a protein sequence is shown, tags need not be part of it. For some of these results: The exact form of at least one protein or probe is not confirmed.
Experiments:
[1] = target: T1, Lin28 C139A/C161A (Mus musculus (murine)) (UniProt Q8K3Y3); assay: EMSA (stoichiometric); conditions: 0.5 µM RNA, EMSA: 50 mM Tris pH 7.6, 50 mM NaCl, 10% glycerol, 0.05% NP-40 alternative, 2 mM DTT, 4°C, 2-AP: 50 mM Tris pH 7.6, 50 mM NaCl, recombinant protein, residues 1-209, label: 5'-32P
T1 sequence (looked up): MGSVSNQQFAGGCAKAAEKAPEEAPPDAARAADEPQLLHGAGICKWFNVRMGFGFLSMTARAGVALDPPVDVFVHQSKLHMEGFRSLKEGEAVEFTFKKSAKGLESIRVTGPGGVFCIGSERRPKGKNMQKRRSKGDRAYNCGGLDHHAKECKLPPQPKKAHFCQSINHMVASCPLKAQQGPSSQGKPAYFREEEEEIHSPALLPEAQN

[2] = target: T2, Lin28 119-180 (Mus musculus (murine)) (UniProt Q8K3Y3); assay: EMSA (stoichiometric); conditions: 0.5 µM RNA, EMSA: 50 mM Tris pH 7.6, 50 mM NaCl, 10% glycerol, 0.05% NP-40 alternative, 2 mM DTT, 4°C, 2-AP: 50 mM Tris pH 7.6, 50 mM NaCl, recombinant protein, residues 119-180, label: 5'-32P
T2 sequence (looked up): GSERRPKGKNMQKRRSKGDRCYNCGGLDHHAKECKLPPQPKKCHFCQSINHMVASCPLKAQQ

[3] = target: T3, Lin28 (Lin28A) (Mus musculus (murine)) (UniProt Q8K3Y3); assay: EMSA (stoichiometric); conditions: 0.5 µM RNA, EMSA: 50 mM Tris pH 7.6, 50 mM NaCl, 10% glycerol, 0.05% NP-40 alternative, 2 mM DTT, 4°C, 2-AP: 50 mM Tris pH 7.6, 50 mM NaCl, recombinant protein, residues 1-209, label: 5'-32P
T3 sequence (looked up): T1 sequence (looked up) with A139C, A161C

[4] = target: T3, Lin28 (Lin28A) (Mus musculus (murine)); assay: EMSA; conditions: EMSA: 50 mM Tris pH 7.6, 50 mM NaCl, 10% glycerol, 0.05% NP-40 alternative, 2 mM DTT, 4°C, 2-AP: 50 mM Tris pH 7.6, 50 mM NaCl, recombinant protein, residues 1-209, label: 5'-32P

“GCAGAUUGAGGGUCUAUGAUACCACCCGGUACAGGAGAUAUCUGCA [TL-let-7g]”: binds more weakly [1].

“GCAGAUUGAGGGUCUUGUACCACCCGGUACAAGAUAUCUGCA [TL-let-7g Δiloop]”: binds more weakly [1]; binds more weakly [2].

“GCAGAUGUCUAUGAUACCACCCGGUACAGGAGAUAUCUGCA [TL-let-7g Δbulge]”: binds more weakly [1]; binds more weakly [3].

UGAGGGUC [TL6-13] showed a Kd ([4]; not detectable up to 5 µM protein) of over 5 µM.

For AUUGACGCUCUAUA [TL5-18V], the Kd [4] was over 5 µM.
